No constants are given. Whether binding was seen depends on the method and setting. Binding seen in cells or lysates may run through a third protein. A yes stands for co-enrichment or nearness to the bait. Other partners may have been found. Tags and fused reporters may be left off the sequences shown.

Chains of the proteins cited; added tags and fusions are not shown.
UniProt O00410: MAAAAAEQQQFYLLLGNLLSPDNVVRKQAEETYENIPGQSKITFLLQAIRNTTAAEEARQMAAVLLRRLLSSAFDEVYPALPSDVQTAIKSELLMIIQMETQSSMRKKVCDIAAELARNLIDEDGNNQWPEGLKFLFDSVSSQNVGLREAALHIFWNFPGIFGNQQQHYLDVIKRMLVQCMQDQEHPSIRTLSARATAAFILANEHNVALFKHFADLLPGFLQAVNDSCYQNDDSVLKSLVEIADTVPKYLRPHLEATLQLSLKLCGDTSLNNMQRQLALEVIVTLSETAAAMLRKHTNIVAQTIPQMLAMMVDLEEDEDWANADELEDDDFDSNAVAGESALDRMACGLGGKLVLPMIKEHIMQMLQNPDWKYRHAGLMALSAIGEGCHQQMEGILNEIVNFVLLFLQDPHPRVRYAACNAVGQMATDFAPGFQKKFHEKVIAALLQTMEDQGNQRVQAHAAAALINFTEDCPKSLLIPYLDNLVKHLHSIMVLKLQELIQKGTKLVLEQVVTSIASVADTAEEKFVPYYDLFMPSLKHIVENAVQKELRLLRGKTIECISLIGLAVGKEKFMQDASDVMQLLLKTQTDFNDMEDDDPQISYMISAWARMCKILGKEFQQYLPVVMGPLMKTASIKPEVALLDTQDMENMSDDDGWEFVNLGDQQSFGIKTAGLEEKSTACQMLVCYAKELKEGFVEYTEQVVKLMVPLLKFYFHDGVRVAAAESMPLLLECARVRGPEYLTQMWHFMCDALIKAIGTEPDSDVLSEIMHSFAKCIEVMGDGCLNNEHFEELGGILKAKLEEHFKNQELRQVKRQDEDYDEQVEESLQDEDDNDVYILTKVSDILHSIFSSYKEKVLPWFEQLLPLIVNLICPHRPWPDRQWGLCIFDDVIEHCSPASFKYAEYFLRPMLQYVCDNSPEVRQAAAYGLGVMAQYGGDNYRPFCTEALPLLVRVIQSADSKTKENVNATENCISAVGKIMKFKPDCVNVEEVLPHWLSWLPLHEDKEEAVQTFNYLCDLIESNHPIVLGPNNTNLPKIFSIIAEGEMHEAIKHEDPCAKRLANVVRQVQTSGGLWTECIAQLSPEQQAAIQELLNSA
UniProt O15397: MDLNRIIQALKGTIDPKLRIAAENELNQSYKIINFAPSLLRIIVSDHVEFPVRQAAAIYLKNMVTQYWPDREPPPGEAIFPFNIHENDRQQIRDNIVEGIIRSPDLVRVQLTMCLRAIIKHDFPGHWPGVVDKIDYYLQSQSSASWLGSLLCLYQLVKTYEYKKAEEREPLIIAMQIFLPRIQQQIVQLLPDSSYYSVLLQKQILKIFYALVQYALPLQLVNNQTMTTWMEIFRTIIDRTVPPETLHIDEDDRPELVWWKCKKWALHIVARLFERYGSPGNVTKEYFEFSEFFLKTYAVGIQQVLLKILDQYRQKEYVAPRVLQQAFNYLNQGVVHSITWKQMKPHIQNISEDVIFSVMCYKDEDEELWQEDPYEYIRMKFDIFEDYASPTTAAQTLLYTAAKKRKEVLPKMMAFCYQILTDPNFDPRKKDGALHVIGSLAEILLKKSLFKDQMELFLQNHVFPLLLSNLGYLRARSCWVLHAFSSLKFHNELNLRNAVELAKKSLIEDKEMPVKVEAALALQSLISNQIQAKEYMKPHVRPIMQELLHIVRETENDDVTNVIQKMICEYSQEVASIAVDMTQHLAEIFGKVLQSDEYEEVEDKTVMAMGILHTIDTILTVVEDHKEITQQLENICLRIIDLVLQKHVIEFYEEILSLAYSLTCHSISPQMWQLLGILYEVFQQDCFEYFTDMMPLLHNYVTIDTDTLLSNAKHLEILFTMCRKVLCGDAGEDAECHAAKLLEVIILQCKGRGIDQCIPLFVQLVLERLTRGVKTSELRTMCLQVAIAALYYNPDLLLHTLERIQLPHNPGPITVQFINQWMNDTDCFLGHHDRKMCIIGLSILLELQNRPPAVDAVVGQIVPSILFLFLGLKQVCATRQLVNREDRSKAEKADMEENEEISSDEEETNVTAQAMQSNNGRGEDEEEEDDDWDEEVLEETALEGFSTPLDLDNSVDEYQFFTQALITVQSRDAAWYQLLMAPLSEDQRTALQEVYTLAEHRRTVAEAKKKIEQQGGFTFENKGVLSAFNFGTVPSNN

The test has as its target T1, FLAG-tagged hPPIP5K2 (human) (UniProt O43314).
T1 sequence: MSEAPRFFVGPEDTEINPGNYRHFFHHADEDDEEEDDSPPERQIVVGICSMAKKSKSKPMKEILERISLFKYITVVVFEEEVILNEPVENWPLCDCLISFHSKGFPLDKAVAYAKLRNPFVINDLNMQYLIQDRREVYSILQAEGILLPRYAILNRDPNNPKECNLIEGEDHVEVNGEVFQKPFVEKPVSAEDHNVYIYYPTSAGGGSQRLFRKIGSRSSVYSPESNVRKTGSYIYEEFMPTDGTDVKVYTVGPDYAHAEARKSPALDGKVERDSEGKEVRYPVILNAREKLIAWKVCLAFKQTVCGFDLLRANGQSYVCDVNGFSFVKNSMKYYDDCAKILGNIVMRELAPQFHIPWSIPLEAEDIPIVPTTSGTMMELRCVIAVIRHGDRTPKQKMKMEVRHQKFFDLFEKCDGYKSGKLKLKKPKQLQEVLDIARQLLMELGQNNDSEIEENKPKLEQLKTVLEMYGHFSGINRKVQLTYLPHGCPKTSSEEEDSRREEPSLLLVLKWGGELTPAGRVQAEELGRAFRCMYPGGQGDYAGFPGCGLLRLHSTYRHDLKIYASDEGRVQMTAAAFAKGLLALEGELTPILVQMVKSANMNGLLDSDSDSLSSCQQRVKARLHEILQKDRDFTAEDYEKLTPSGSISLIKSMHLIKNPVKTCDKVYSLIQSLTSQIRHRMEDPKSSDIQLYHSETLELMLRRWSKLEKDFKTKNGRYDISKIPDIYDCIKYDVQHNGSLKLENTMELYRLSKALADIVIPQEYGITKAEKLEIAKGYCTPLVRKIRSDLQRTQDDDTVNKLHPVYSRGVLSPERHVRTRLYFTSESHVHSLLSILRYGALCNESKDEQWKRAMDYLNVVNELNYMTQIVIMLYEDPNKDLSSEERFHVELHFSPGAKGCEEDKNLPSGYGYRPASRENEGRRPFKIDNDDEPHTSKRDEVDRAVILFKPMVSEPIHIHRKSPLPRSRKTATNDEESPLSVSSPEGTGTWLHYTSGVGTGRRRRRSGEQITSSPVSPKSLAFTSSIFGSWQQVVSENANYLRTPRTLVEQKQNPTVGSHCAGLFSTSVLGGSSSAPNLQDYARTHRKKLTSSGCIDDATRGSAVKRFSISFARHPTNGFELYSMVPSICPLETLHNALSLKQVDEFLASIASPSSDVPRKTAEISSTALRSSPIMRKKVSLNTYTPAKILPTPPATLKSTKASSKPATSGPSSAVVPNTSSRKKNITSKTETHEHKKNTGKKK
Description: affinity purification with mass spectrometry; lysates of stable HEK293T lines (50 mM HEPES pH 7.8, 300 mM NaCl, 1.0% NP-40) incubated 90 min at 0-4 °C with ANTI-FLAG M2 affinity gel, washed with TBS, eluted with 0.1 M glycine-HCl pH 3.5, SDS-PAGE lanes cut in 24 sections, nanoLC-ESI-MS/MS; subtractive against the FLAG-β-galactosidase control.

As to Importin-5 (from UniProt O00410 1-1097), the binding entry is recorded as “binds”.

As for Importin-8 (from UniProt O15397 1-1037), the binding result is reported as “binds”.

The values above are taken from PMC4472268.
